The text below walks through data of PMC11576389.

Amino acid sequences for entries named in this document (tags omitted). A change or cut given only in a name is not applied to a line headed by its entry. Residues count along the entry.
UniProt P14780: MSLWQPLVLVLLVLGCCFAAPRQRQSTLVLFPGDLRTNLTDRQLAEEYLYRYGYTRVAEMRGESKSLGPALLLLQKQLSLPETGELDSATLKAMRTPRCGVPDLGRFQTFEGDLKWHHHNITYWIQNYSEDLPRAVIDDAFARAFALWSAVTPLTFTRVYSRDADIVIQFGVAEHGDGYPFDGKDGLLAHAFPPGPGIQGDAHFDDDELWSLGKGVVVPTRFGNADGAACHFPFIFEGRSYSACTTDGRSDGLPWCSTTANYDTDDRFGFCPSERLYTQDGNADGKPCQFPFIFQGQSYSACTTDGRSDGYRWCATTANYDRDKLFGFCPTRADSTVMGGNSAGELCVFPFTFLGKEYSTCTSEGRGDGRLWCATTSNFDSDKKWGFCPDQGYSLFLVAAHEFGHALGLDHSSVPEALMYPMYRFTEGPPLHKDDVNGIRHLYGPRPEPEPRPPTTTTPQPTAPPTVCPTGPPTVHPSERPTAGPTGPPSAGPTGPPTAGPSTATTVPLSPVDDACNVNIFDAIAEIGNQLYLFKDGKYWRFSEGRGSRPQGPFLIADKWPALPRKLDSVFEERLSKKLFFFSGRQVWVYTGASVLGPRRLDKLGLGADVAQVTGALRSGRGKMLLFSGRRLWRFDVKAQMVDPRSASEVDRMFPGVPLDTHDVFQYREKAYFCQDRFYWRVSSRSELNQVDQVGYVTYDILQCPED
UniProt P01033, residues 24-207: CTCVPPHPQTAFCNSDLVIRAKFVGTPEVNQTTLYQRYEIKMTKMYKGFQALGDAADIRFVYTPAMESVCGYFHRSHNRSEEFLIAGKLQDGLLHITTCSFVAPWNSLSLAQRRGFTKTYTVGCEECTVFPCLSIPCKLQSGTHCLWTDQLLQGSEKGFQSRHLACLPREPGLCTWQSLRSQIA

These are yes or no findings as the source states them, for the method shown. A result given as binding can be weak or reduced; the word gives no strength.

Experiment [1] deals with matrix metalloproteinase-9 (MMP-9) (human (endogenous in monocyte-derived macrophages)) (UniProt P14780). Kind of experiment: ELISA; MMP-9 complexed by TIMP-1 measured in cell lysates of M(LPS/IFN-γ) and M(IL-4) (Figure S5); the only method the paper names for the complex is the Human MMP-9/TIMP-1 DuoSet ELISA. In general terms: ELISA stands for enzyme-linked immunosorbent assay.

Experiment [2] shares this target. Nature of the experiment: ELISA; sandwich ELISA for the MMP-9/TIMP-1 complex (Human MMP-9/TIMP-1 DuoSet ELISA, R&D Systems DY1449) on cell culture supernatants of M(M-CSF), M(LPS/IFN-γ) and M(IL-4), according to the manufacturer's protocol.

For “tissue inhibitor of metalloproteinases-1 (TIMP-1) (from UniProt P01033 24-207)”, the binding entry in experiment [1] and in experiment [2] was “binds” throughout.
